Measured data: PubChem BioAssay AID1508588 (Peter MacCallum Cancer Centre, 2020)

- Purpose: 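Genome-wide search for knock-downs that heighten vemurafenib action in melanoma cells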 (primary screen)
- Cell system: human WM266.4 melanoma cells (BRAF V600 mutant)
- Reagent: siRNA pool against human genes, 40 nM
- Timing: 96 h from transfection to read-out
- Conditions: vemurafenib 300 nM (about IC25), added 48 h after transfection, for 48 h; comparison arm got DMSO vehicle only
- Measurement: 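Ratios to non-targeting siRNA for cell gain, counted as DAPI nuclei after minus before drug and averaged over two replicates, and for absorbance-read medium lactate per cell; both binned into fold-change classes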
- Scale: cell gain with vemurafenib: higher = more cell gain than with non-targeting siRNA; lactate per cell with vemurafenib: higher = more lactate made per cell
- Rule for the call: 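a knock-down counts as enhancing when its fold-change classes with vehicle and with vemurafenib, taken together, show a stronger drug effect on cell gain or lactate per cell; exact class pairs not stated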
- Calls: active = enhances vemurafenib effect; inactive = no enhancement seen
Here is a random part of about 18,000 reagents tested. 790 of them (4.4%) count as active. 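Calls rest on a combination of fold-change classes in drug and vehicle arms, not all shown here.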 Unmarked entries are inactive. A reagent listed more than once was tested more than once; the source does not tell the runs apart.

{"gene knocked down": "TOP1", "cell gain with vemurafenib": 0.69, "lactate per cell with vemurafenib": 1.27}
{"gene knocked down": "OR51M1", "cell gain with vemurafenib": 0.38, "lactate per cell with vemurafenib": 1.92}
{"gene knocked down": "CEACAM3", "cell gain with vemurafenib": 0.75, "lactate per cell with vemurafenib": 1}
{"gene knocked down": "TTC5", "cell gain with vemurafenib": 0.39, "lactate per cell with vemurafenib": 2.06}
{"gene knocked down": "CLCN2", "cell gain with vemurafenib": 0.59, "lactate per cell with vemurafenib": 0.38}
{"gene knocked down": "SH3YL1", "cell gain with vemurafenib": 1.44, "lactate per cell with vemurafenib": 0.78}
{"gene knocked down": "ACSM2B", "cell gain with vemurafenib": 0.88, "lactate per cell with vemurafenib": 0.53}
{"gene knocked down": "NEDD1", "cell gain with vemurafenib": 0.06, "lactate per cell with vemurafenib": 1.33}
{"gene knocked down": "OCRL", "cell gain with vemurafenib": 0.63, "lactate per cell with vemurafenib": 0.54}
{"gene knocked down": "HIGD1A", "cell gain with vemurafenib": 0.94, "lactate per cell with vemurafenib": 0.68}
{"gene knocked down": "H2BC10", "cell gain with vemurafenib": 0.2, "lactate per cell with vemurafenib": 1.84}
{"gene knocked down": "MCOLN3", "cell gain with vemurafenib": "0.51 (active)", "lactate per cell with vemurafenib": 0.7}
{"gene knocked down": "HMCES", "cell gain with vemurafenib": 0.96, "lactate per cell with vemurafenib": 0.94}
{"gene knocked down": "LCK", "cell gain with vemurafenib": 0.83, "lactate per cell with vemurafenib": 0.61}
{"gene knocked down": "LCK", "cell gain with vemurafenib": 0.59, "lactate per cell with vemurafenib": 0.64}
{"gene knocked down": "ZNF614", "cell gain with vemurafenib": 0.52, "lactate per cell with vemurafenib": 1.3}
{"gene knocked down": "HECTD2", "cell gain with vemurafenib": "0.93 (active)", "lactate per cell with vemurafenib": 0.44}
{"gene knocked down": "SLC2A9", "cell gain with vemurafenib": 0.76, "lactate per cell with vemurafenib": 0.38}
{"gene knocked down": "GRAP2", "cell gain with vemurafenib": 0.82, "lactate per cell with vemurafenib": 0.8}
{"gene knocked down": "PPP2CA", "cell gain with vemurafenib": 0.41, "lactate per cell with vemurafenib": 1.46}
{"gene knocked down": "FBXO16", "cell gain with vemurafenib": 0.6, "lactate per cell with vemurafenib": 0.73}
{"gene knocked down": "ZNF579", "cell gain with vemurafenib": 0.89, "lactate per cell with vemurafenib": 1.33}
{"gene knocked down": "TTLL7", "cell gain with vemurafenib": 1.23, "lactate per cell with vemurafenib": 0.88}
{"gene knocked down": "LINC02897", "cell gain with vemurafenib": 1.47, "lactate per cell with vemurafenib": 0.62}
{"gene knocked down": "GNE", "cell gain with vemurafenib": 1.09, "lactate per cell with vemurafenib": 0.96}
{"gene knocked down": "SSRP1", "cell gain with vemurafenib": 0.56, "lactate per cell with vemurafenib": 1.14}
{"gene knocked down": "SLC4A11", "cell gain with vemurafenib": 0.78, "lactate per cell with vemurafenib": 0.78}
{"gene knocked down": "MARCHF9", "cell gain with vemurafenib": 0.53, "lactate per cell with vemurafenib": 1.62}
{"gene knocked down": "RILP", "cell gain with vemurafenib": 0.29, "lactate per cell with vemurafenib": 1.86}
{"gene knocked down": "PHOSPHO2", "cell gain with vemurafenib": 0.78, "lactate per cell with vemurafenib": 0.8}
{"gene knocked down": "RASSF8", "cell gain with vemurafenib": 0.27, "lactate per cell with vemurafenib": 1.56}
{"gene knocked down": "DCAF6", "cell gain with vemurafenib": 0.46, "lactate per cell with vemurafenib": 1.01}
{"gene knocked down": "KHDC3L", "cell gain with vemurafenib": 0.44, "lactate per cell with vemurafenib": 1.38}
{"gene knocked down": "ACCSL", "cell gain with vemurafenib": 0.67, "lactate per cell with vemurafenib": 1.96}
{"gene knocked down": "TRIOBP", "cell gain with vemurafenib": 0.9, "lactate per cell with vemurafenib": 0.86}
{"gene knocked down": "CYP51A1", "cell gain with vemurafenib": 0.88, "lactate per cell with vemurafenib": 0.78}
{"gene knocked down": "SH2D1A", "cell gain with vemurafenib": 0.76, "lactate per cell with vemurafenib": 1.03}
{"gene knocked down": "QRFPR", "cell gain with vemurafenib": 0.42, "lactate per cell with vemurafenib": 1.1}
{"gene knocked down": "GRIA4", "cell gain with vemurafenib": 1.15, "lactate per cell with vemurafenib": 0.46}
{"gene knocked down": "CD1A", "cell gain with vemurafenib": "0.96 (active)", "lactate per cell with vemurafenib": 0.48}

Quoted from the listing (3 entries):
{"gene knocked down": "PHOSPHO2", "cell gain with vemurafenib": 0.78, "lactate per cell with vemurafenib": 0.8}
{"gene knocked down": "RASSF8", "cell gain with vemurafenib": 0.27, "lactate per cell with vemurafenib": 1.56}
{"gene knocked down": "DCAF6", "cell gain with vemurafenib": 0.46, "lactate per cell with vemurafenib": 1.01}
